Measured values taken from US20190330142A1, “INHIBITORS OF MTOR-DEPTOR INTERACTIONS AND METHODS OF USE THEREOF” (The Regents of the University of California, priority 2016, published 2019).
The name of at least one read-out is uncertain.

Tested on: p70 phosphorylation (mTORC1 activity) in 8226 cells
Experiment: p70 phosphorylation Western blot (TORC1 activity) in 8226 cells
Type: cell-based
Conditions: 0.5 uM, 6 hrs, compound B arbitrarily 1
Description: In mTORC1, mTOR phosphorylates the p70S6 kinase.
The 8226 and MM1.S myeloma cell lines were purchased from ATCC. The cell lines were characterized by FISH analysis and shown to contain MAF/Ig translocations. Western blot confirmed a significant over-expression of DEPTOR protein. Both lines were tested for mycoplasma within the last 6 months and were negative. Western blot assay—Protein was extracted and separated by 12.5% SDS-PAGE as previously described (see new ref below). Proteins were transferred to polyvinylidene difluoride membranes and their expression was detected utilizing specific antibodies purchased from Cell Signaling (Beverly, Mass.).

NN=C1C(Cl)=C(Cl)C(Cl)=C1Cl [compound B, (Perchlorocyclopenta-2,4-dien-1-ylidene)hydrazine, reference compound]
p70 phosphorylation vs the parent B: 1.0 fold increase
